Substitutions are numbered along the chain they refer to. Numbers in names are those of the source. No constants are given. Whether binding was seen depends on the method and setting. Binding can be weak; no strength is given.
B1: Y00263 (designed binder)
chain: MGSSHHHHHHGSSLAEAKEAAIAELKSKGVGAYQKSFIELAKSVEHVELLKEAILADLP
notes: Y00032 with D13K
B2: Y00272 (designed binder)
chain: B1 chain with K26D, A41G
notes: Y00032 with A28G
B3: Y00265 (designed binder)
chain: B1 chain with K26D, V30I
notes: Y00032 with V17I
B4: Y00276 (designed binder)
chain: B1 chain with K26D, A56K
notes: Y00032 with A43K
B5: Y00266 (designed binder)
chain: B1 chain with K26D, G31S
notes: Y00032 with G18S
B6: Y00269 (designed binder)
chain: B1 chain with K26D, S36K
notes: Y00032 with S23K
B7: Y00275 (designed binder)
chain: B1 chain with K26D, E52Q
notes: Y00032 with E39Q
B8: Y00270 (designed binder)
chain: B1 chain with K26D, K35I, S36K
notes: Y00032 with K22I + S23K
B9: Y00271 (designed binder)
chain: B1 chain with K26D, E39Q
notes: Y00032 with E26Q
B10: Y00273 (designed binder)
chain: B1 chain with K26D, E45Q
notes: Y00032 with E32Q
B11: Y00264 (designed binder)
chain: B1 chain with K26D, K28Y
notes: Y00032 with K15Y
B12: Y00268 (designed binder)
chain: B1 chain with K26D, K35I
notes: Y00032 with K22I
B13: Y00267 (designed binder)
chain: B1 chain with K26D, A32E
notes: Y00032 with A19E
B14: Y00274 (designed binder)
chain: B1 chain with K26D, E48Q
notes: Y00032 with E35Q

Protein sequences, listed by entry. Tags and fused reporters are not part of them. Lines headed by an entry give the natural chain unless they say otherwise; changes in a name come on top.
UniProt P01308: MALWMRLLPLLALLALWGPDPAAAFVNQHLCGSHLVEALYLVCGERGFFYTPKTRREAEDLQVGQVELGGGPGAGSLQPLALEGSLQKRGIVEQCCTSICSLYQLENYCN

These binders were tested against T1, insulin (UniProt P01308 25-54; P01308 90-110, limits assumed) (assay: SPR, Biacore T200).
T1 construct: Mature insulin has two chains (A and B) from one precursor; also called b-insulin

binding, binds:
B1
B2
B3
B4
B5
B6
B7
B8
B9
B10
B11
B12
B13
B14

Source: US20210047372A1 (Affibody, published 2021)
